Measurements taken from the supplement of paper PMC10849652.
Some of the results follow. Residues, ends and D or L forms follow the SMILES beside them. *: point of attachment. Cbz = O=C(OCc1ccccc1)*

The chains behind the UniProt entries cited, without tags or fusion partners. Where a name states a change or a piece, a line headed by the entry shows the natural chain unless it says otherwise.
UniProt Q68D91: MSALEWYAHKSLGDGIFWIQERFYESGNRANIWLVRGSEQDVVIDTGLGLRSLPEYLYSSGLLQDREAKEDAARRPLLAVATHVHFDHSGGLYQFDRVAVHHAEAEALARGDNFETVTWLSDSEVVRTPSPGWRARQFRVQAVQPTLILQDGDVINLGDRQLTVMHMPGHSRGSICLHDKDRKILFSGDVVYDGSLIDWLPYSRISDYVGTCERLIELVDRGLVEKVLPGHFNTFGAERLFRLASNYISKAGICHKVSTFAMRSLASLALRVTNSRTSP
UniProt Q16626: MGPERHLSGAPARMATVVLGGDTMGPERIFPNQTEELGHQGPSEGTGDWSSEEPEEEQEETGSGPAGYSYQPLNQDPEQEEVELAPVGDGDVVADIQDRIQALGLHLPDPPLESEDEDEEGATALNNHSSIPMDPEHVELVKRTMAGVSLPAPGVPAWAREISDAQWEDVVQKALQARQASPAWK
UniProt Q8IVS2: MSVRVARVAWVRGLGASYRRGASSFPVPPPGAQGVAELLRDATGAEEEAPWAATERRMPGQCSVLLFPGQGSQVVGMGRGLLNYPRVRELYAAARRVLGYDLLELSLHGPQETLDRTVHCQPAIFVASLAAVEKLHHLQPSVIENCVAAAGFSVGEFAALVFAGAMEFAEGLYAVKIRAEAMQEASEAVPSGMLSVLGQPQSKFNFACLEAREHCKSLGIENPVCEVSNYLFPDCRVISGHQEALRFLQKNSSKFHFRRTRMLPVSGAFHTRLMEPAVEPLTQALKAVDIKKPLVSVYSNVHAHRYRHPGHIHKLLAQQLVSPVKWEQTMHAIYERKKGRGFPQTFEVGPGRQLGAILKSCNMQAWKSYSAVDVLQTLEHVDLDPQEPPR
UniProt P55081: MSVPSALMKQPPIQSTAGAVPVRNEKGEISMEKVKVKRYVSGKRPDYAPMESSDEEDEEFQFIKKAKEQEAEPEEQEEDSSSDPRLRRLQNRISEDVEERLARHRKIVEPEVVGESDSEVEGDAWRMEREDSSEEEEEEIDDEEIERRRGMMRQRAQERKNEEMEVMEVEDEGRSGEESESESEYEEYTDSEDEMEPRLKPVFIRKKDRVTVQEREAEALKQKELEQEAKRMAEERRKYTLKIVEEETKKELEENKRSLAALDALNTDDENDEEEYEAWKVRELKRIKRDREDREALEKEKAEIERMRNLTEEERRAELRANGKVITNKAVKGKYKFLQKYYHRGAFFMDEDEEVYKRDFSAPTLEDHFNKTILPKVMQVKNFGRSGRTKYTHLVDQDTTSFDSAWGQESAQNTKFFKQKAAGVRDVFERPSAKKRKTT
UniProt Q96HR3: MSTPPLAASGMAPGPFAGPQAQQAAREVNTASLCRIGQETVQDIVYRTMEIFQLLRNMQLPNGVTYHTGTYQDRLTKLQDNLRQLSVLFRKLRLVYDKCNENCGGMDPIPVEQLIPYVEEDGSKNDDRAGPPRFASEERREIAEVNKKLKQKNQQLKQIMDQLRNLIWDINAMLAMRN
UniProt P61244, whole entry, looked up: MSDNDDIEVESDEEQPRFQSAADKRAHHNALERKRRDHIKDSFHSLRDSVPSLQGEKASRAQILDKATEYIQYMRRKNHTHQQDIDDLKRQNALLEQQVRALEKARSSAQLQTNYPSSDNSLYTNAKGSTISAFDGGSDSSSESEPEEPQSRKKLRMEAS
UniProt Q8WXB1: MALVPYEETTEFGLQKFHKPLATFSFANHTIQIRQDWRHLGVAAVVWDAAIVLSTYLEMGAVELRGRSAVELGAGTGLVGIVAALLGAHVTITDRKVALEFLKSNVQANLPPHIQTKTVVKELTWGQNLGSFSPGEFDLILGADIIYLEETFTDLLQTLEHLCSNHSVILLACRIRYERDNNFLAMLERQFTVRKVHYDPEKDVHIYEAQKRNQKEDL
UniProt Q9HCC0: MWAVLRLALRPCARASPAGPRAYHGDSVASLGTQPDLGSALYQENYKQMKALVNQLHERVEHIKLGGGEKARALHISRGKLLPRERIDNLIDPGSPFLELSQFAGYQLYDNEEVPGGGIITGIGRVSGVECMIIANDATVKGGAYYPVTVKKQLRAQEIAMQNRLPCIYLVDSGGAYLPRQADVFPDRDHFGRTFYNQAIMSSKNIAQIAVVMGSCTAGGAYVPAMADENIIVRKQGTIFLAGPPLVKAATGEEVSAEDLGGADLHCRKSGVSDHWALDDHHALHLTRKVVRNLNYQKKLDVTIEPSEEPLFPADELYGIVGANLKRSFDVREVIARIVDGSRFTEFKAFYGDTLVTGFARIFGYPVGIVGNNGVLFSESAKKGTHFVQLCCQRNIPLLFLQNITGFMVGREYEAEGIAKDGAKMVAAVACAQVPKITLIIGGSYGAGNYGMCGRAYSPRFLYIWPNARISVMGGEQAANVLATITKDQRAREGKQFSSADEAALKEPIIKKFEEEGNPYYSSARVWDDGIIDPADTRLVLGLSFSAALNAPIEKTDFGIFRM
UniProt Q96GW9: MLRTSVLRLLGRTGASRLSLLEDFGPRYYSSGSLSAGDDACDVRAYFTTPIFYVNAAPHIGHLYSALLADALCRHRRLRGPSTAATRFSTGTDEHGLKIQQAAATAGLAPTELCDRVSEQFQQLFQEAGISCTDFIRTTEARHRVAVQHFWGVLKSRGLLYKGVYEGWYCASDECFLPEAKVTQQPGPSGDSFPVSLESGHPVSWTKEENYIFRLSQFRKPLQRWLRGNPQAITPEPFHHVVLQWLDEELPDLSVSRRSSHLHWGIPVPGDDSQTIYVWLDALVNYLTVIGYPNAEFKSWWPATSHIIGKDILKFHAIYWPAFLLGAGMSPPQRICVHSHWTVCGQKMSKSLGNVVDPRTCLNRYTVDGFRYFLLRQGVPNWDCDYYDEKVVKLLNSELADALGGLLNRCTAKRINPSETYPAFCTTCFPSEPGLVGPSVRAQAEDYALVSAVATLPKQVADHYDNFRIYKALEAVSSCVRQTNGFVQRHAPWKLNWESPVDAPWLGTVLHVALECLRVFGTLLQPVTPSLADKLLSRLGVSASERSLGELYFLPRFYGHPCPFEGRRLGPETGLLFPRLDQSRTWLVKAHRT
UniProt Q86U44, whole entry, looked up: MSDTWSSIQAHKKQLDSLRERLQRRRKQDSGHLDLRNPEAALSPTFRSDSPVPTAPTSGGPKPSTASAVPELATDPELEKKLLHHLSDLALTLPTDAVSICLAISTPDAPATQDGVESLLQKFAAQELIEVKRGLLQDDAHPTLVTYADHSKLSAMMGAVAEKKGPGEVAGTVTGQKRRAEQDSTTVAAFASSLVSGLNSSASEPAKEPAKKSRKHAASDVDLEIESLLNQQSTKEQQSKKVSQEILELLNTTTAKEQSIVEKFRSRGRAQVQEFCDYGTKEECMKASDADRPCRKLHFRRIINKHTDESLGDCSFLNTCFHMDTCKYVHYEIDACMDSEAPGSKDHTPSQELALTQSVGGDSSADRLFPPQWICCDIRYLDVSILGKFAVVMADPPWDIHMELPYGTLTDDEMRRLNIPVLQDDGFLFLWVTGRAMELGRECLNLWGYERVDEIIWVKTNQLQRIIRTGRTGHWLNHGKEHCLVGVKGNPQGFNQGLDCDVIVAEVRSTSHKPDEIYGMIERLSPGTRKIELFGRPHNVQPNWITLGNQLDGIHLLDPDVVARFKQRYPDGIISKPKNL
UniProt P40925: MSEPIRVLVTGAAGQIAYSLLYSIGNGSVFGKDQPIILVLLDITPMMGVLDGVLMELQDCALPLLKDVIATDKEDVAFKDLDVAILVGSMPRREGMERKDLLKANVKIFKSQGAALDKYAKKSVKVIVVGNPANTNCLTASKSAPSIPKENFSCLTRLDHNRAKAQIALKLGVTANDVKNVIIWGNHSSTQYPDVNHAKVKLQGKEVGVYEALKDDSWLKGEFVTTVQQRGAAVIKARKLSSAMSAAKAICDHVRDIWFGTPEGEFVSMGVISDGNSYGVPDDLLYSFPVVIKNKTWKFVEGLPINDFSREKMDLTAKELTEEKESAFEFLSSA
UniProt Q96PC5: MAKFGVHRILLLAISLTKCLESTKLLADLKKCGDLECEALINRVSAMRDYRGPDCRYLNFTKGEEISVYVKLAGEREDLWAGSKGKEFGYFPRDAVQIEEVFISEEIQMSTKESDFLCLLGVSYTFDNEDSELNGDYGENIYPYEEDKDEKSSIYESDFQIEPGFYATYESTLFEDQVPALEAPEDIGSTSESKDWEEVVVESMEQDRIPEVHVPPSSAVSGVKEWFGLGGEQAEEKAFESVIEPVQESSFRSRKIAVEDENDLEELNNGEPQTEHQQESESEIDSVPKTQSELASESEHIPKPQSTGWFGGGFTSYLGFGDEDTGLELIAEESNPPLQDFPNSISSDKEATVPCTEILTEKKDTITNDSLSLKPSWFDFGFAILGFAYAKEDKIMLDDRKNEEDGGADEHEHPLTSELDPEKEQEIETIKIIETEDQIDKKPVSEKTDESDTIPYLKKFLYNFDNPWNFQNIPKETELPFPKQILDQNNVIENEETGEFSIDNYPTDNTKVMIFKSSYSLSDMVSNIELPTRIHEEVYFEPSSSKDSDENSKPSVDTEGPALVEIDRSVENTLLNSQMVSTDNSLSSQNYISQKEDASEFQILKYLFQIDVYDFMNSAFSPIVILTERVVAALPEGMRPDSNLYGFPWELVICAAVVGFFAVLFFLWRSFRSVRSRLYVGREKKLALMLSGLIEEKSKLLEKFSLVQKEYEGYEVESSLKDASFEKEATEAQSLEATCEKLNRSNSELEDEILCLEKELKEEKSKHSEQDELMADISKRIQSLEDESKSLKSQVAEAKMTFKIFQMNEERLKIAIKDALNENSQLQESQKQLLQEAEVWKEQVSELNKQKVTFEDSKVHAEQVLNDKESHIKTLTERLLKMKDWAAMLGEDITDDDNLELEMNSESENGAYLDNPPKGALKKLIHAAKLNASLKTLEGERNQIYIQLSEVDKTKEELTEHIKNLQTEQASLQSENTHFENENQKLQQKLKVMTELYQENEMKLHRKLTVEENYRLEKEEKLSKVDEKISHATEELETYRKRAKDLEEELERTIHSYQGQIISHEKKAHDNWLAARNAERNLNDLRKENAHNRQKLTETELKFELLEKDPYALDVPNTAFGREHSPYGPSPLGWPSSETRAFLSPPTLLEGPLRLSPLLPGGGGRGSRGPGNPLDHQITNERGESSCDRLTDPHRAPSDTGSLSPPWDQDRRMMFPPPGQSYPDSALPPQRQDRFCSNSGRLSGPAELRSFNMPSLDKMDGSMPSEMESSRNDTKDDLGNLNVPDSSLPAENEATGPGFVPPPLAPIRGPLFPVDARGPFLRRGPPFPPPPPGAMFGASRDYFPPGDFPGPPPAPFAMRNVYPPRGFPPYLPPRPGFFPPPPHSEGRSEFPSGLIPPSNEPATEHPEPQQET
UniProt P40926: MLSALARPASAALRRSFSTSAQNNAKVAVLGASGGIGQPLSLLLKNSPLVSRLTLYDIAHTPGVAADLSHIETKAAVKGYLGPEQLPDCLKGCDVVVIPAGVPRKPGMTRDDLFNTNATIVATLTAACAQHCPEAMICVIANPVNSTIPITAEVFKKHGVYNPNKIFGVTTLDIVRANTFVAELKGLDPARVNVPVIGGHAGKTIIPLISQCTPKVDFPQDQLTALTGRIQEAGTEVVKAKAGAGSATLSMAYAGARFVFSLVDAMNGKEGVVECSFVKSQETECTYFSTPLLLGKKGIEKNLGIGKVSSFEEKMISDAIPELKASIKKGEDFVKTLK
UniProt Q6N075: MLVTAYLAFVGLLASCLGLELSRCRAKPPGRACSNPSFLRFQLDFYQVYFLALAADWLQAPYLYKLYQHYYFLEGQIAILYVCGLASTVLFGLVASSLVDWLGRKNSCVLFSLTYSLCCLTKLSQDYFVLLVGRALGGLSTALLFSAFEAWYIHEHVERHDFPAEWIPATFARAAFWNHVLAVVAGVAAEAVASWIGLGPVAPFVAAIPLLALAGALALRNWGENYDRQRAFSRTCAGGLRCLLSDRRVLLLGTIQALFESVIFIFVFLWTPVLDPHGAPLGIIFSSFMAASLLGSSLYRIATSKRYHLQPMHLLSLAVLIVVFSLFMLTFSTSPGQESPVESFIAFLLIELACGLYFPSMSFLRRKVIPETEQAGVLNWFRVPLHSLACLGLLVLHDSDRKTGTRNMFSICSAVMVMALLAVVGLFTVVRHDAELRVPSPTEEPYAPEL

Experiments:
Test in all cases: log2 fold change, soluble protein after heating vs DMSO (PISA); higher = thermal stabilisation; K562 cells, 10 uM, 30 min; active = over 0.2 and 3.5 SD of the protein, either way, in both replicates (recomputed)
[1] = compound: C1COCCN1CCN2C3=CC=CC=C3N=C2NC(=O)C4=CC(=CC=C4)[N+](=O)[O-] [IRAK-1-4 Inhibitor I]
Method in brief: (§1)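 K562 cells at 2×10^6 cells/mL were treated for 30 min with 10 μM compound, and aliquots were heated for 3 min over 48°C-58°C before pooling. Extraction used PBS with 0.5% NP-40 at 4°C, and soluble protein was the supernatant after 21,000xg for 90 min, measured by TMTpro 16plex LC-MS/MS with channel sums equalised. Thermal stability values, relative to control samples and from duplicates, are log2 fold changes.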

[2] = compound: C=CC(=O)N1CCC[C@@H](n2nc(-c3ccc(Oc4ccccc4)cc3)c3c(N)ncnc32)C1 [ibrutinib]
Method in brief: as §1

[3] = compound: CC(=O)c1cnc2ccc(-c3cc(Cl)c(O)c(Cl)c3)nc2c1N[C@H]1CC[C@H](CN(C)C)CC1
Method in brief: as §1

[4] = compound: CC(C)(C)Cn1c(N)nc2ccc(-c3[nH]c(C(C)(C)C)nc3-c3ccc(F)cc3)nc21 [ralimetinib]
Method in brief: as §1

[5] = compound: CC(C)(O)CC(=O)NCCn1ccc2ncnc(Nc3ccc(Oc4cccc(C(F)(F)F)c4)c(Cl)c3)c21
Method in brief: as §1

[6] = compound: CC(C)C1=C2N=C(C=C(N2N=C1)NCC3=CC=CC=C3)NCCCCCCN
Method in brief: as §1

[7] = compound: CC(C)C[C@@H](C=O)NC(=O)[C@H](CC(C)C)NC(=O)[C@H](CC(C)C)NC(=O)OCc1ccccc1
Method in brief: as §1

[8] = compound: CC(C)N(C[C@H]1O[C@@H](n2cnc3c(N)ncnc32)[C@H](O)[C@@H]1O)[C@H]1C[C@@H](CCc2nc3cc(C(C)(C)C)ccc3[nH]2)C1 [pinometostat]
Method in brief: as §1

[9] = compound: CC1=C(C(CC(=O)N1)C2=CC=C(C=C2)C(F)(F)F)C(=O)NC3=C(C=C4C(=C3)C=NN4)F
Method in brief: as §1

[10] = compound: CC1=C(C2=C(C=C1)C(=O)C3=CC=CC=C3N2CCCN)C
Method in brief: as §1

[11] = compound: CC1=C(C=C(C=C1)NC(=O)C2=CC(=CC=C2)C(C)(C)C#N)NC3=CC4=C(C=C3)N=CN(C4=O)C
Method in brief: as §1

[12] = compound: CC1=C(C=C(C=C1)NC(=O)C2=CC(=CC=C2)N(C)C)NC(=O)C3=CC=C(C=C3)O
Method in brief: as §1

[13] = compound: CC1=CC=C(C=C1)SC2=C3C=C(SC3=CN=C2)C(=O)N
Method in brief: as §1

[14] = compound: CC1=NC(=CC=C1)C2=C(N=C(N2)C(C)(C)C)C3=CC4=NC=CN=C4C=C3
Method in brief: as §1

[15] = compound: CCCCN(Cc1ccc(C(=O)NO)cc1)C(=O)Nc1ccccc1 [Nexturastat A]
Method in brief: as §1

[16] = compound: CCCS(=O)(=O)Nc1ccc(F)c(C(=O)c2c[nH]c3ncc(-c4ccc(Cl)cc4)cc23)c1F [vemurafenib]
Method in brief: as §1

[17] = compound: CCCS(=O)(=O)Nc1ccc(F)c(C(=O)c2c[nH]c3ncc(Cl)cc23)c1F
Method in brief: as §1

[18] = compound: CCCc1cc(C)[nH]c(=O)c1CNC(=O)c1cc(-c2ccnc(N3CCN(C)CC3)c2)cc2c1cnn2C(C)C
Method in brief: as §1

[19] = compound: CCN(CC)Cc1ccc2cc(COC(=O)Nc3ccc(C(=O)NO)cc3)ccc2c1 [givinostat]
Method in brief: as §1

[20] = compound: CCN(CCCOc1ccc2c(Nc3cc(CC(=O)Nc4cccc(F)c4)[nH]n3)ncnc2c1)CCOP(=O)(O)O [barasertib]
Method in brief: as §1

Measured: log2 fold change

MBLAC2 (UniProt Q68D91)
inactive: [1] -0.015 | [2] 0.002 | [3] 0.002 | [4] -0.019 | [5] 0.032 | [6] 0.093 | [7] -0.028 | [8] 0.001 | [9] 0.053 | [10] 0.03 | [11] 0 | [12] 0.013 | [13] -0.016 | [14] -0.047 | [15] 0.001 | [16] -0.082 | [17] -0.011 | [18] -0.058 | [19] 0.045 | [20] -0.021

MEA1 (UniProt Q16626)
inactive: [1] 0.03 | [2] 0.107 | [3] -0.274 | [4] -0.113 | [5] 0.029 | [6] 0.045 | [7] 0.108 | [8] -0.02 | [9] -0.001 | [10] -0.119 | [11] 0.049 | [12] -0.049 | [13] 0.025 | [14] 0.008 | [15] 0.01 | [16] 0.092 | [17] -0.037 | [18] -0.066 | [19] 0.029 | [20] 0.07

MCAT (UniProt Q8IVS2)
inactive: [1] -0.131 | [2] 0.007 | [3] -0.001 | [4] 0.038 | [5] 0.103 | [6] -0.028 | [7] 0.018 | [8] 0.038 | [9] 0.026 | [10] 0.091 | [11] -0.023 | [12] 0.006 | [13] -0.007 | [14] -0.115 | [15] 0.041 | [16] -0.036 | [17] 0.01 | [18] 0.031 | [19] 0.018 | [20] -0.038

MFAP1 (UniProt P55081)
inactive: [1] 0.035 | [2] 0.027 | [3] 0.078 | [4] -0.046 | [5] 0.045 | [6] 0.008 | [7] 0.106 | [8] 0.004 | [9] 0.051 | [10] -0.138 | [11] -0.143 | [12] 0.022 | [13] -0.033 | [14] 0.017 | [15] 0.039 | [16] 0.032 | [17] -0.056 | [18] 0.134 | [19] -0.005 | [20] -0.04

MED30 (UniProt Q96HR3)
inactive: [1] -0.037 | [2] 0.022 | [3] -0.048 | [4] -0.097 | [5] -0.035 | [6] -0.034 | [7] 0.046 | [8] 0.067 | [9] 0.036 | [10] 0.035 | [11] -0.071 | [12] 0.009 | [13] 0.003 | [14] 0.001 | [15] 0.123 | [16] -0.028 | [17] 0.032 | [18] -0.097 | [19] -0.026 | [20] 0.015

MAX (UniProt P61244)
inactive: [1] 0.032 | [2] 0.024 | [3] -0.185 | [4] -0.044 | [5] 0.132 | [6] 0.157 | [7] 0.026 | [8] -0.06 | [9] 0.016 | [10] 0.099 | [11] -0.043 | [12] 0.012 | [13] -0.083 | [14] -0.011 | [15] -0.034 | [16] 0.113 | [17] -0.064 | [18] -0.055 | [19] -0.144 | [20] -0.007

METTL21A (UniProt Q8WXB1)
inactive: [1] 0.027 | [2] 0.054 | [3] 0.04 | [4] 0.044 | [5] 0.01 | [6] 0.021 | [7] -0.076 | [8] -0.119 | [9] 0.007 | [10] 0.081 | [11] 0.067 | [12] 0.018 | [13] 0.054 | [14] -0.01 | [15] -0.07 | [16] 0.052 | [17] 0.059 | [18] 0.024 | [19] -0.075 | [20] 0.026

Two successive records out of the list so far, quoted:
MED30 (UniProt Q96HR3)
inactive: [1] -0.037 | [2] 0.022 | [3] -0.048 | [4] -0.097 | [5] -0.035 | [6] -0.034 | [7] 0.046 | [8] 0.067 | [9] 0.036 | [10] 0.035 | [11] -0.071 | [12] 0.009 | [13] 0.003 | [14] 0.001 | [15] 0.123 | [16] -0.028 | [17] 0.032 | [18] -0.097 | [19] -0.026 | [20] 0.015

MAX (UniProt P61244)
inactive: [1] 0.032 | [2] 0.024 | [3] -0.185 | [4] -0.044 | [5] 0.132 | [6] 0.157 | [7] 0.026 | [8] -0.06 | [9] 0.016 | [10] 0.099 | [11] -0.043 | [12] 0.012 | [13] -0.083 | [14] -0.011 | [15] -0.034 | [16] 0.113 | [17] -0.064 | [18] -0.055 | [19] -0.144 | [20] -0.007

Additional entries.

MEAF6 isoform 3 (UniProt Q9HAF1)
inactive: [1] -0.027 | [2] 0.115 | [3] -0.098 | [4] 0.07 | [5] 0.072 | [6] 0.02 | [7] 0.055 | [8] 0.024 | [9] -0.019 | [10] 0.085 | [11] 0.06 | [12] 0.035 | [13] -0.061 | [14] -0.066 | [15] 0.224 | [16] -0.023 | [17] -0.031 | [18] 0.012 | [19] 0.015 | [20] -0.042

MCCC2 (UniProt Q9HCC0)
inactive: [1] 0.046 | [2] 0.019 | [3] 0.047 | [4] -0.015 | [5] 0.027 | [6] 0.024 | [7] -0.04 | [8] -0.05 | [10] 0.003 | [11] 0.048 | [12] -0.028 | [13] 0.026 | [14] 0.04 | [15] -0.04 | [16] 0.011 | [17] 0.013 | [18] -0.028 | [19] -0.049 | [20] -0.02

MARS2 (UniProt Q96GW9)
inactive: [1] 0.018 | [2] 0.053 | [3] -0.013 | [4] 0.004 | [5] 0.008 | [6] 0.073 | [7] -0.04 | [8] 0.02 | [9] 0.069 | [10] 0.017 | [11] -0.016 | [12] 0.028 | [13] -0.021 | [14] 0.004 | [15] -0.062 | [16] -0.049 | [17] 0.012 | [18] 0.001 | [19] -0.091 | [20] -0.017

METTL3 (UniProt Q86U44)
inactive: [1] 0.017 | [2] 0.008 | [3] -0.019 | [4] -0.008 | [5] -0.019 | [6] 0.013 | [7] -0.001 | [8] 0.054 | [9] -0.006 | [10] 0.111 | [11] -0.013 | [12] 0.016 | [13] 0.02 | [14] 0.022 | [15] -0.01 | [16] 0.016 | [17] 0.027 | [18] 0.032 | [19] -0.028 | [20] -0.006

MDH1 isoform 3 (UniProt P40925)
inactive: [1] 0.043 | [2] -0.002 | [3] 0.021 | [4] 0.026 | [5] 0.024 | [6] 0.061 | [7] -0.038 | [8] -0.067 | [9] -0.006 | [10] 0 | [11] 0.024 | [12] 0.003 | [13] 0.045 | [14] 0.027 | [15] -0.043 | [16] -0.004 | [17] -0.004 | [18] -0.058 | [19] -0.015 | [20] -0.002

MIA2 (UniProt Q96PC5)
inactive: [1] -0.036 | [2] 0.008 | [3] -0.059 | [4] -0.003 | [5] 0.03 | [6] -0.155 | [7] 0.035 | [8] 0.043 | [10] 0.032 | [11] 0.009 | [12] -0.012 | [13] -0.002 | [14] -0.016 | [15] 0.015 | [16] 0.003 | [17] -0.062 | [18] 0.128 | [19] 0.003 | [20] 0.021

MDH2 (UniProt P40926)
inactive: [1] 0.056 | [2] 0.022 | [3] 0.008 | [4] -0.052 | [5] 0.033 | [6] 0.045 | [7] -0.022 | [8] -0.049 | [9] 0.03 | [10] -0.004 | [11] -0.015 | [12] 0.013 | [13] 0.021 | [14] 0.001 | [15] -0.109 | [16] -0.001 | [17] -0.02 | [18] -0.033 | [19] -0.079 | [20] -0.004

MFSD5 isoform 2 (UniProt Q6N075)
inactive: [1] -0.068 | [2] -0.016 | [3] -0.007 | [4] 0.019 | [5] -0.017 | [6] -0.053 | [7] 0.003 | [8] 0.049 | [10] -0.061 | [11] 0.038 | [12] 0.015 | [13] -0.078 | [14] 0.064 | [15] -0.014 | [16] 0.023 | [17] -0.118 | [18] -0.039 | [19] -0.039 | [20] 0.122
